1 sequence from paper PMC7859218 can be followed below.

For data set [1], the target named is T1, carcinoembryonic antigen (CEA) (UniProt P06731).
T1 sequence (looked up, limits assumed): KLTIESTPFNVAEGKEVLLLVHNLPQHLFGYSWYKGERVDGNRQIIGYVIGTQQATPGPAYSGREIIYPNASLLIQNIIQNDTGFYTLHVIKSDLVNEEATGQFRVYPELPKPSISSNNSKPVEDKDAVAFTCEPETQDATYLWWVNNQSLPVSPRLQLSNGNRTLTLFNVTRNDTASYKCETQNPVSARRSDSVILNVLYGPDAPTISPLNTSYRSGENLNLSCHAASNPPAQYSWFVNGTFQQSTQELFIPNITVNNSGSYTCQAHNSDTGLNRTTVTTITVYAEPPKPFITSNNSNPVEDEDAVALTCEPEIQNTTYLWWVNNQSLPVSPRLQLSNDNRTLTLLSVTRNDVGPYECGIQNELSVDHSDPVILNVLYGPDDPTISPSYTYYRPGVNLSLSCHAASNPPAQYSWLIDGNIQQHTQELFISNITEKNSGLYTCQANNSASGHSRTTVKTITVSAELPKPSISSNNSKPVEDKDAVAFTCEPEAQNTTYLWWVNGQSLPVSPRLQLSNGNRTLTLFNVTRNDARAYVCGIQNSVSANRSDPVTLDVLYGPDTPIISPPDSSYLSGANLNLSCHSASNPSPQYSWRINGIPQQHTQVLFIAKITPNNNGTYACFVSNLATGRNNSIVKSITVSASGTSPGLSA
As to the kind of experiment: electrochemical sensor (cyclic voltammetry). The settings on record: no external field, decrease at 100 fg/ml to 10 pg/ml CEA, not distinguishable from baseline at lower concentration; 5'-NH2; covalently immobilized via MTS/GMBS on ZnO nanorods; CEA diluted in 100 mM PBS, 10 min at room temperature, DI water wash; CV in 1 mM K3Fe(CN)6/K4Fe(CN)6; aptamer stock in 10 mM Tris-HCl, 1 mM EDTA, 0.1 M NaCl, pH 7.40; single-stranded DNA.

Data set [2] addresses T1, carcinoembryonic antigen (CEA). As to the kind of experiment: electrochemical sensor (cyclic voltammetry, impedance). The settings on record: aptamer on graphene-ZnO electrode, +0.8 V pulse, peak current decrease from 1 fg/ml CEA (LOD, not Kd); 5'-NH2; covalently immobilized via MTS/GMBS on ZnO nanorods; CEA diluted in 100 mM PBS, 10 min at room temperature, DI water wash; CV in 1 mM K3Fe(CN)6/K4Fe(CN)6; aptamer stock in 10 mM Tris-HCl, 1 mM EDTA, 0.1 M NaCl, pH 7.40; single-stranded DNA.

For at least one entry, the source does not settle the construct or the ends of the probe. Tags and fusion partners may be left off the protein sequences shown.

As for ATACCAGCTTATTCAATT [CEA aptamer], the binding result in data set [1] and in data set [2] was “binds” in each case.
